Taken from: PubChem BioAssay AID1259308 (NCATS, 2017)
This is one part, drawn at random, of about 59,000 deposited reagents. Over the whole deposit, about 1,510 (2.6%) got an active call. 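Calls use total luciferase alone and ignore viability, so some active siRNAs may act by altering cell number.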 A number with no mark means an inactive call. Further read-outs or replicates are left out here.

- Assay: 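Candidate targets for better recombinant protein yield in mammalian cells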 (primary screen)
- System: human HEK293 embryonic kidney cells stably expressing firefly luciferase (HEK-CMV-Luc2-Hygro)
- Knock-down reagent: single siRNA against human genes, 0.8 pmol siRNA per well
- Time to read-out: 72 h
- Read-out: 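Reporter luminescence and viable-cell signal on separate replicate plates, given as percent of non-targeting control and median/MAD z-scores, plus per-cell luciferase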
- Direction: total luciferase, z-score and total luciferase, % of control: higher = more reporter protein produced
- Rule for the call: 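An siRNA counts as active if its total luciferase robust z-score exceeds 3; genes with two or more such siRNAs out of three were retested with fresh siRNAs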
- Meaning of the calls: active = raised luciferase; inactive = no rise

KLHL13 [SID160753630] — total luciferase, z-score = 1.4; total luciferase, % of control = 110
KLHL13 [SID160753631] — total luciferase, z-score = -0.439; total luciferase, % of control = 73.2
KLHL13 [SID160753632] — total luciferase, z-score = -0.759; total luciferase, % of control = 66.8
PUM1 [SID160722838] — total luciferase, z-score = -0.236; total luciferase, % of control = 77.2
PUM1 [SID160722839] — total luciferase, z-score = 1.37; total luciferase, % of control = 109
PUM1 [SID160722840] — total luciferase, z-score = 0.0867; total luciferase, % of control = 83.6
BMP2K [SID160743846] — total luciferase, z-score = -1.08; total luciferase, % of control = 60.5
BMP2K [SID160743847] — total luciferase, z-score = -0.188; total luciferase, % of control = 78.2
BMP2K [SID160743848] — total luciferase, z-score = -0.432; total luciferase, % of control = 73.3
PFN2 [SID160714185] — total luciferase, z-score = -0.964; total luciferase, % of control = 62.7
PFN2 [SID160714186] — total luciferase, z-score = 0.341; total luciferase, % of control = 88.7
PFN2 [SID160714188] — total luciferase, z-score = 1.31; total luciferase, % of control = 108
ABLIM2 [SID160752271] — total luciferase, z-score = 0.978; total luciferase, % of control = 101
ABLIM2 [SID160752272] — total luciferase, z-score = -0.524; total luciferase, % of control = 71.5
ABLIM2 [SID160752273] — total luciferase, z-score = -2.15; total luciferase, % of control = 39.2
CDCA5 [SID160754789] — total luciferase, z-score = -0.896; total luciferase, % of control = 64.1
CDCA5 [SID160754790] — total luciferase, z-score = -1.2; total luciferase, % of control = 58.1
CDCA5 [SID160754791] — total luciferase, z-score = 1.73; total luciferase, % of control = 116
REM1 [SID160738858] — total luciferase, z-score = -0.0214; total luciferase, % of control = 81.5
REM1 [SID160738859] — total luciferase, z-score = -0.0901; total luciferase, % of control = 80.1
REM1 [SID160738860] — total luciferase, z-score = 2.38; total luciferase, % of control = 129
RSF1 [SID160741341] — total luciferase, z-score = 0.588; total luciferase, % of control = 93.6
RSF1 [SID160741342] — total luciferase, z-score = 0.872; total luciferase, % of control = 99.2
RSF1 [SID160741344] — total luciferase, z-score = -0.506; total luciferase, % of control = 71.8
MT1XP1 [SID160733946] — total luciferase, z-score = 1.81; total luciferase, % of control = 118
MT1XP1 [SID160769638] — total luciferase, z-score = 2.59; total luciferase, % of control = 133
MT1XP1 [SID160769639] — total luciferase, z-score = -0.372; total luciferase, % of control = 74.5
CDC26 [SID160732793] — total luciferase, z-score = -1.73; total luciferase, % of control = 47.4
CDC26 [SID160762005] — total luciferase, z-score = -1.05; total luciferase, % of control = 61.1
CDC26 [SID160762006] — total luciferase, z-score = -0.82; total luciferase, % of control = 65.6
CCN5 [SID160720941] — total luciferase, z-score = 0.605; total luciferase, % of control = 93.9
CCN5 [SID160720942] — total luciferase, z-score = 1.46; total luciferase, % of control = 111
CCN5 [SID160720943] — total luciferase, z-score = -0.772; total luciferase, % of control = 66.5

Targets above whose target name begins with A or a:
ABLIM2 [SID160752271] — total luciferase, z-score = 0.978; total luciferase, % of control = 101
ABLIM2 [SID160752272] — total luciferase, z-score = -0.524; total luciferase, % of control = 71.5
ABLIM2 [SID160752273] — total luciferase, z-score = -2.15; total luciferase, % of control = 39.2
